Measurements reported in PubChem BioAssay AID504808 (Drosophila RNAi Screening Center, 2011).
In all, the deposit lists about 21,000 reagents; shown is an unselected part of those that have a named target and a result. In the full data, 18 (0.084%) are marked active. 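Raw counts without plate normalisation, one of two replicates; the ratio scores behind the calls were not deposited.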 The numbers tell different reagents against one gene apart. Names joined by + are all predicted targets of the reagent. The record does not give: the amount of reagent, the time to read-out.

Test: 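Chromatin factors that keep E2F targets switched off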 (primary screen)
Cell system: Drosophila S2 cells
Knock-down reagent: long dsRNA against Drosophila genes
Read-out: 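Firefly luciferase driven by E2F sites, normalised to Renilla luciferase on the same minimal promoter, measured by plate reader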
Direction: E2F firefly: higher = more E2F reporter activity; Renilla normaliser: higher = more normaliser reporter signal
Active means: 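a knock-down counted as active when the firefly/Renilla E2F signal rose above 50%, a threshold chosen arbitrarily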

The opening 4 entries, ahead of the listing:
no.	Target gene	reagent no.	E2F firefly, rep 1	Renilla normaliser, rep 1	Outcome
1	CG42354 + CG42353	1	6796	832	inactive
2	CG18269	1	1.50e5	5346	inactive
3	sbm (sobremesa)	1	2.27e5	5780	inactive
4	ana1 (anastral spindle 1)	1	68374	4032	inactive

Main list, from the first entry:
no.	Target gene	reagent no.	E2F firefly, rep 1	Renilla normaliser, rep 1	Outcome
1	CG42354 + CG42353	1	6796	832	inactive
2	CG18269	1	1.50e5	5346	inactive
3	sbm (sobremesa)	1	2.27e5	5780	inactive
4	ana1 (anastral spindle 1)	1	68374	4032	inactive
5	Capr (Caprin)	1	1.75e5	7738	inactive
6	cert (ceramide transfer protein)	1	75092	3948	inactive
7	Tctp (Translationally controlled tumor protein)	1	1.57e5	6987	inactive
8	Mesh1 (Metazoan SpoT homolog-1)	1	1.26e5	6539	inactive
9	Pcf11 (Pcf11 cleavage and polyadenylation factor subunit)	1	94	28	inactive
10	CG32683	1	1.33e5	5244	inactive
11	CG32683	2	64398	5482	inactive
12	CG32683	3	54310	4016	inactive
13	Impbeta11 (Importin beta11)	1	1.05e5	4223	inactive
14	Src64B (Src oncogene at 64B)	1	89239	3883	inactive
15	CG10822	1	1.47e5	5379	inactive
16	CG13285	1	87123	3976	inactive
17	CG17134	1	1.63e5	5477	inactive
18	Or10a (Odorant receptor 10a)	1	1.14e5	5927	inactive
19	IntS8 (Integrator 8)	1	87224	3533	inactive
20	Dus1 (Dihydrouridine synthase 1)	1	1.57e5	4610	inactive
21	abs (abstrakt)	1	77265	3585	inactive
22	ova (ovaries absent)	1	86752	3435	inactive
23	pbl (pebble)	1	64873	2847	inactive
24	LKRSDH (Lysine ketoglutarate reductase/saccharopine dehydrogenase)	1	95241	3867	inactive
25	siz (schizo)	1	1.28e5	5770	inactive
26	siz (schizo)	2	1.18e5	6136	inactive
27	siz (schizo)	3	1.24e5	5822	inactive
28	CG16779	1	1.43e5	5244	inactive
29	smid (smallminded)	1	99603	3936	inactive
30	CG31446	1	80153	2880	inactive
31	pyd (polychaetoid)	1	78044	4038	inactive
32	pyd (polychaetoid)	2	74062	3960	inactive
33	pyd (polychaetoid)	3	1.45e5	6331	inactive
34	pyd (polychaetoid)	4	1.16e5	5624	inactive
35	pyd (polychaetoid)	5	63525	3763	inactive
36	pyd (polychaetoid)	6	1.23e5	6226	inactive
37	pyd (polychaetoid)	7	1.35e5	6909	inactive
